2 molecules from article PMC11037505 can be followed below.

One assay has as its target T1, PCDH19-FLAG (mouse) (UniProt Q80TF3).
T1 sequence: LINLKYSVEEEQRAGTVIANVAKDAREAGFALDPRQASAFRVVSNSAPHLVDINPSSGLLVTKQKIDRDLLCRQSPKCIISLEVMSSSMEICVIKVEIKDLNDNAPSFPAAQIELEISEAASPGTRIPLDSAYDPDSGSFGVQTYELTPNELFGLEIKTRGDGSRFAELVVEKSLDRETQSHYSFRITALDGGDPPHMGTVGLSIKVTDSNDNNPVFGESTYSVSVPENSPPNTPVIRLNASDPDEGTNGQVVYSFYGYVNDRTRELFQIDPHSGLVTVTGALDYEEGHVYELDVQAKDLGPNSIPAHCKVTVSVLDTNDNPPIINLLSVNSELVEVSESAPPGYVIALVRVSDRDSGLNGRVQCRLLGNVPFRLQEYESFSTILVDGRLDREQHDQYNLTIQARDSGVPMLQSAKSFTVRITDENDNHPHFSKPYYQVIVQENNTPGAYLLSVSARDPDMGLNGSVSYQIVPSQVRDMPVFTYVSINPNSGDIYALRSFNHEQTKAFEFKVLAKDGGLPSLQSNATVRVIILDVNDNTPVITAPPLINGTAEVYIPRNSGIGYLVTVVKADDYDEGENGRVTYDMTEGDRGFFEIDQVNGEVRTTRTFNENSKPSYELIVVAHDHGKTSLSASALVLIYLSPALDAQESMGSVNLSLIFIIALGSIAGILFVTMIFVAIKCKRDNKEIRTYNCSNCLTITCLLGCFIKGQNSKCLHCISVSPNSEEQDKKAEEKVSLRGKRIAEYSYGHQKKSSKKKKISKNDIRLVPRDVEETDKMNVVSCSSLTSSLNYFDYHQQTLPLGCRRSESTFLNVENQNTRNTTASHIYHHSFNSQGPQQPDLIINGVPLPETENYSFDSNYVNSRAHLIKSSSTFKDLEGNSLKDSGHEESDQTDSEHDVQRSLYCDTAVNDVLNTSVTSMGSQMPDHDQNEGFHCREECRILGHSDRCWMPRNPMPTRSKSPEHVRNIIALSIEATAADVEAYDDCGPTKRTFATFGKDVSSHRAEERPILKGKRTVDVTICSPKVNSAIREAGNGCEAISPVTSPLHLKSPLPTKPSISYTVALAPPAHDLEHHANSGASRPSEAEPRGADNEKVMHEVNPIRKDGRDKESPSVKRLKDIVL
The assay can be described thus: co-IP; HEK293T cells co-transfected with differently tagged proteins, harvested 24 h after transfection; lysis buffer 50 mM Tris-HCl pH 7.5, 150 mM NaCl, 0.2% Triton X-100, 2 mM EDTA, 0.01% SDS; IP with anti-FLAG M2 or anti-HA agarose beads; western blot. (A western blot detects proteins with antibodies after separation by electrophoresis.)

The target in the next assay is PCDH9-HA (mouse). The assay is described as above.

No constants are given. Whether binding was seen depends on the method and setting. In cells and extracts the contact can be indirect. A result given as binding can be weak or reduced; the word gives no strength. Where a sequence is shown, tags or fusion partners need not be part of it.

On to PCDH1-MYC (mouse), for which the binding entry in the assay with PCDH19-FLAG (mouse) was “binds”.

B1: PCDH19-FLAG (protein, UniProt Q80TF3 22-1145)
chain: T1 sequence
Take B1: the binding entry with PCDH9-HA (mouse) is recorded as “binds”.
